The results in this text go back to publication PMC8516413.

Amino acid sequences for entries named in this document (tags omitted). Residues count along the entry.
UniProt Q9ULT6, residues 56-936: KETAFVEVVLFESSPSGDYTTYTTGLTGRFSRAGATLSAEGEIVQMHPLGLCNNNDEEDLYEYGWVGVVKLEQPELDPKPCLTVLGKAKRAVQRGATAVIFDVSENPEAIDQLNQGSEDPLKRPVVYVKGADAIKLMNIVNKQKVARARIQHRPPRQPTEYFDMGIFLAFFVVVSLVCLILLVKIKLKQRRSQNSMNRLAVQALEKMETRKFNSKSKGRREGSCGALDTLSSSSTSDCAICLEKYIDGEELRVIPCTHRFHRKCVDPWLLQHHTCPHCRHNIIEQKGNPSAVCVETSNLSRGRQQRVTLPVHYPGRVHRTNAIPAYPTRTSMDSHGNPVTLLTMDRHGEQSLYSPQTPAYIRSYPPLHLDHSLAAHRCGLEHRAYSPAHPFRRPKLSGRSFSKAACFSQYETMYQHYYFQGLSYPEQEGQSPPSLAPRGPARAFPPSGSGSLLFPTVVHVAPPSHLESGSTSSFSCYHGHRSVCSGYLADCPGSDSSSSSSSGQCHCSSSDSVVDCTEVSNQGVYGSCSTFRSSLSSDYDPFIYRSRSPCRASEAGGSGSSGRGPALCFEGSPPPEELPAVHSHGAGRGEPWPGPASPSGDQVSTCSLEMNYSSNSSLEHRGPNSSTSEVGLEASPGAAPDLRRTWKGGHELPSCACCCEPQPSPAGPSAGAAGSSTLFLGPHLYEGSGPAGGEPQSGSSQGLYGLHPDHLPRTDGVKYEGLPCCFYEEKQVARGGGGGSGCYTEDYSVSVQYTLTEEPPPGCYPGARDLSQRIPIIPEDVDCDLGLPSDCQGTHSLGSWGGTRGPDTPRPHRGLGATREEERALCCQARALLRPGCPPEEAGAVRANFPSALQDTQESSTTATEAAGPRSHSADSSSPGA
UniProt P08581, residues 25-1390: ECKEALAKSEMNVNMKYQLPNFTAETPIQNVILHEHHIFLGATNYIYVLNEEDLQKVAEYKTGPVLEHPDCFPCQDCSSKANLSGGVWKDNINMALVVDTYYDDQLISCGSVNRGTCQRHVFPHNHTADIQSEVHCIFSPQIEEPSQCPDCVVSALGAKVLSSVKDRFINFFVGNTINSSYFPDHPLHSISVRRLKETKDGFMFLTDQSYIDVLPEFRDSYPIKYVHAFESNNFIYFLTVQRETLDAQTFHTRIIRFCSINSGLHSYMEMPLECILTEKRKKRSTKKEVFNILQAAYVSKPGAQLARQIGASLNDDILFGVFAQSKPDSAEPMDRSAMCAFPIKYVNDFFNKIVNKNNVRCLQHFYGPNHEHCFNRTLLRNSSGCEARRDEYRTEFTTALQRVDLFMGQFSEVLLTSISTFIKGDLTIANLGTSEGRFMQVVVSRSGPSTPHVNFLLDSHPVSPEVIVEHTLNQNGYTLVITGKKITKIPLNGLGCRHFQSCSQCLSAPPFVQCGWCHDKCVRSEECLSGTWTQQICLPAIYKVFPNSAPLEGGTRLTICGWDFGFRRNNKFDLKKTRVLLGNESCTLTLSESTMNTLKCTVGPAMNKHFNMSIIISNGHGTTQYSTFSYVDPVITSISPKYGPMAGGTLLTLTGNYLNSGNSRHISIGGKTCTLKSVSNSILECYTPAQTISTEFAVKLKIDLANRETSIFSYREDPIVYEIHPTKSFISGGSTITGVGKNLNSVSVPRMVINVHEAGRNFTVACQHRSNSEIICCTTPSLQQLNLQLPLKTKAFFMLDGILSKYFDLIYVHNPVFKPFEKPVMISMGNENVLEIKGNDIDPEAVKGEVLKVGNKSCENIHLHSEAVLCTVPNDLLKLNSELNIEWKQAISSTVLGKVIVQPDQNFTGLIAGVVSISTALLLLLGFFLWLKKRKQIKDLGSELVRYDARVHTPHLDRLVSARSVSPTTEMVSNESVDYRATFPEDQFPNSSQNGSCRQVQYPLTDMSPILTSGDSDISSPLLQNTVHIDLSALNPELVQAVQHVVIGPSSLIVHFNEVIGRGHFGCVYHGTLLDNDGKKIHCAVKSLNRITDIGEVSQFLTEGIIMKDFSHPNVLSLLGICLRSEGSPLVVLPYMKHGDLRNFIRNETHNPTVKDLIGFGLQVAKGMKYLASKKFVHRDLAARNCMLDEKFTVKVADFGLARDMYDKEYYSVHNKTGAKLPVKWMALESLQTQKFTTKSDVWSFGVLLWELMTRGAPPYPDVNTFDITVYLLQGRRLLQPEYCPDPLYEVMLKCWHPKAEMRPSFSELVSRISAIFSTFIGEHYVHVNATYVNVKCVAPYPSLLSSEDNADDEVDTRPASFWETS

These are yes or no findings as the source states them, for the method shown. Binding seen in cells or lysates may run through a third protein. Some results given as binding are weak or reduced against the parent protein; the word gives no strength.

This assay deals with Zinc and ring finger 3 (ZNRF3), HA-tagged, doxycycline-inducible in H1703 cells (human) (UniProt Q9ULT6). The assay is described as follows: co-IP; anti-HA on Protein A/G Plus Agarose from precleared lysates of doxycycline-induced TetOn ZNRF3-HA H1703 cells, 4 °C for 4 hr, washed four times with Triton lysis buffer (1 % Triton X-100, 150 mM NaCl, pH 7.5); blot for endogenous MET and SRC; siRNA knockdown of MET or SRC; also a time course of 100 ng/ml HGF (binding increased, peak at 30 min).

For “MET (mesenchymal-epithelial transition factor / hepatocyte growth factor receptor), endogenous (from UniProt P08581-1 25-1390)”, the binding result was “binds”.
